# Experimental data as given in article PMC13292255.
# Protein sequences, listed by entry. Tags and fused reporters are not part of them. Residues count along the entry.
# UniProt P55058, residues 18-493: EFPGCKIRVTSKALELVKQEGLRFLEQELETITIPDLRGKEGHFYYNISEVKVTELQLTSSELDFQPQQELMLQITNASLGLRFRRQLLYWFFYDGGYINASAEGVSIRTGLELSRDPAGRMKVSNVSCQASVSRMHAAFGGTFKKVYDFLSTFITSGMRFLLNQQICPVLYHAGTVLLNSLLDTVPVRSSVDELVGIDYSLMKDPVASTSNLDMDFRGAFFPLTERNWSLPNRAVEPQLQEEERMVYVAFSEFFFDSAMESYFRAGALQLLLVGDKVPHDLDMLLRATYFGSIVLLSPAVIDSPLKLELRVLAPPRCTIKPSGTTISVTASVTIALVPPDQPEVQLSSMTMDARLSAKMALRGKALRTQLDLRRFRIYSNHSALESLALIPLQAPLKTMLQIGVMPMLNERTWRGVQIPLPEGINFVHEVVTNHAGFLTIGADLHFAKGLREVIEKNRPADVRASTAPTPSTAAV
# UniProt O14965: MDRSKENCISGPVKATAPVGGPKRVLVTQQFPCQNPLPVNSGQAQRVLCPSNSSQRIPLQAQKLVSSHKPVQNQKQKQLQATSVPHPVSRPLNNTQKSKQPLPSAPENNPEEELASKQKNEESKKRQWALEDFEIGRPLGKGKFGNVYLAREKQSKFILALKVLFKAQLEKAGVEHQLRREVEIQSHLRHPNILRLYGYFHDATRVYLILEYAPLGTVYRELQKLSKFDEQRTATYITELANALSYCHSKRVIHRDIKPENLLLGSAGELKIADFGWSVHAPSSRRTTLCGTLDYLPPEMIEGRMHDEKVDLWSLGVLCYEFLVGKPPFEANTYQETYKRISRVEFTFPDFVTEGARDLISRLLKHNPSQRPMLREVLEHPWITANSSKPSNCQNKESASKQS
# Molecular target: Phospholipid transfer protein (PLTP) (human (endogenous in HCC cell lines)) (UniProt P55058)
# Test: affinity purification with mass spectrometry; proteins immunoprecipitated with a PLTP antibody, analysed by LC-MS/MS (Figure 4E, 4F)
substance,measurement,value
Aurora kinase A (AURKA) (from UniProt O14965 1-403) (enzyme),binding,binds

# These are yes or no findings as the source states them, for the method shown. In cells and extracts the contact can be indirect. These calls come from enrichment with a bait or labelling near it, and not all partners need be listed.
